Experimental data: PMC4783376
No constants are given. Whether binding was seen depends on the method and setting. Some entries that bind do so weakly or less than the wild type.

How the values were obtained:
[1] = biological target: T1, RHS10 N-terminal bait (amino acids 1–236), extracellular domain (Arabidopsis thaliana) (UniProt Q9CAL8); assay: two-hybrid; targeted (repeated) yeast two-hybrid assay; RHS10 kinase domain or N-terminal bait in pGBKT7; 0–70 mM 3-AT to suppress background HIS3 activity
T1 sequence: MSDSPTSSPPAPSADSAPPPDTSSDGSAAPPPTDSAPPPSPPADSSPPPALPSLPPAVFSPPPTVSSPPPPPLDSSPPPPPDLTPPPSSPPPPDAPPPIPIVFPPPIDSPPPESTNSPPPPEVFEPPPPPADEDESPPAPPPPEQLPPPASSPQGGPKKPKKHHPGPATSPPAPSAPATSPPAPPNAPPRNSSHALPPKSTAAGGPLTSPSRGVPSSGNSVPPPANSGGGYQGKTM

[2] = biological target: T2, RHS10 kinase domain (amino acids 256–710), yeast two-hybrid bait (Arabidopsis thaliana) (UniProt Q9CAL8); assay: as above
T2 sequence: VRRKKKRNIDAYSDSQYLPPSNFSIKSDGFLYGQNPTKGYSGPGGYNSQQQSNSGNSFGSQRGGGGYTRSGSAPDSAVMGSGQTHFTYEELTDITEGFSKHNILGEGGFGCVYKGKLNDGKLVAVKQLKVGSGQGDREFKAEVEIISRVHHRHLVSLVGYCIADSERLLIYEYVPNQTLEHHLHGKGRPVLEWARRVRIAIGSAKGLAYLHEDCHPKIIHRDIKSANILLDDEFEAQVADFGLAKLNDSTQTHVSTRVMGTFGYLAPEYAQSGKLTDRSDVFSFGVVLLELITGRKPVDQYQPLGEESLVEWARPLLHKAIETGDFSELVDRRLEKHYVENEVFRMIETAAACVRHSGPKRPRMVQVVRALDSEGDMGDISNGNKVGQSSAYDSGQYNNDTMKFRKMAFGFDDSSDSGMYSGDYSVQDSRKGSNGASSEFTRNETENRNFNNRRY

B1: RIBONUCLEASE 2 (RNS2), whole sequence, yeast two-hybrid prey (enzyme, UniProt P42814 1-259)
chain: MASRLCLLLLVACIAGAFAGDVIELNRSQREFDYFALSLQWPGTYCRGTRHCCSKNACCRGSDAPTQFTIHGLWPDYNDGSWPSCCYRSDFKEKEISTLMDGLEKYWPSLSCGSPSSCNGGKGSFWGHEWEKHGTCSSPVFHDEYNYFLTTLNLYLKHNVTDVLYQAGYVASNSEKYPLGGIVTAIQNAFHITPEVVCKRDAIDEIRICFYKDFKPRDCVGSQDLTSRKSCPKYVSLPEYTPLDGEAMVLKMPTEREAL
Q: Which binding [1] does the source give for B1 here?
A: Its binding is “no binding”.

Q: And the binding [2]?
A: The binding was “binds”.
